The list shows only some results of the screen, not a fair sample: it gathers tests that were run many times, whatever their T/C, doses with no T/C, and many T/C values between a quarter and a half above the control. Other doses and runs of a compound stand elsewhere. T/C gives the treated animals as a percentage of the vehicle group. Some entries give survivors of the animals treated and no T/C: the source holds a T/C of zero for them, seemingly a mark for toxic or unscored doses. Some doses without a T/C left all or most animals alive at the check, yet need not have been tolerated: survival well below the control is almost never listed, so the zero probably covers shortened survival too. Survivors were counted at the toxicity check, usually on the fifth day, unless a day is given; later deaths do not show. Schedules are NCI's codes, taken here to give the interval after Q, in days (D) or hours (H), and the number of doses after X. Some doses were run more than once; the results are listed from low to high. Where survival is the endpoint, this PubChem deposit counts one and a half times the control or more as active, and values a quarter to a half above the control carry no call in these data; other NCI protocols may use other cut-offs. Additions like (4×) count equal records among those shown. Some T/C values carry the count of animals alive at the toxicity check (mostly the fifth day); where none is given, no animal had died by that day.
System: BDF1 mice, P388 leukemia ip, median survival T/C
Assay: NCI In Vivo Anticancer Drug Screen. Data for tumor model P388 Leukemia (intraperitoneal) in B6D2F1 (BDF1) mice
Settings: T/C endpoint: median survival time, higher T/C = longer survival
In short: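 Reported as T/C, where T is the survival measurement in dosed animals and C the same measurement in vehicle controls.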

[1] = dose: 100.0 mg/kg/injection, schedule: Q01DX009 (ip), vehicle: saline with Tween-80
[2] = dose: 100.0 mg/kg/injection, schedule: Q04DX003 (ip), vehicle: saline with Tween-80
[3] = dose: 50.0 mg/kg/injection, schedule: Q01DX009 (ip), vehicle: saline
[4] = dose: 200.0 mg/kg/injection, schedule: Q01DX009 (ip), vehicle: saline
[5] = dose: 200.0 mg/kg/injection, schedule: Q04DX003 (ip), vehicle: saline
[6] = dose: 200.0 mg/kg/injection, schedule: Q04DX003 (ip), vehicle: saline with Tween-80
[7] = dose: 400.0 mg/kg/injection, schedule: Q04DX003 (ip), vehicle: saline with Tween-80
[8] = dose: 200.0 mg/kg/injection, schedule: Q01DX009 (ip), vehicle: saline with Tween-80

In the case of `O=NN(CCCl)C(=O)NC1CSCSC1`, the T/C (dose: 1.1 mg/kg/injection, schedule: Q01DX009 (ip), vehicle: saline with Tween-80) is reported as 126 % of control, the T/C (dose: 1.7 mg/kg/injection, schedule: Q01DX009 (ip), vehicle: saline with Tween-80) is reported as 146 % of control and the T/C (dose: 18.0 mg/kg/injection, schedule: Q04DX003 (ip), vehicle: saline with Tween-80) is reported as 136 % of control. For the same compound, the survivor count (dose: 25.0 mg/kg/injection, schedule: Q01DX009 (ip), vehicle: saline with Tween-80) was 6 of 6, the survivor count (dose: 50.0 mg/kg/injection, schedule: Q01DX009 (ip), vehicle: saline with Tween-80) was 5 of 6 and the survivor count [1] was 4 of 6.
For `Cc1ccc(C)c(C(C)NC2=NCCO2)c1` (centres undefined), the survivor count [2] was 2 of 6.
With `O=C1/C(=C/c2ccco2)CC2CCCCC12` (centres undefined) the survivor count (dose: 300.0 mg/kg/injection, schedule: Q01DX001 (ip), vehicle: other) was 5 of 6.
For `CCOc1cc(C=Nc2cccc(C(F)(F)F)c2)ccc1O`, the survivor count (dose: 200.0 mg/kg/injection, schedule: Q04DX003 (ip), vehicle: other) was 6 of 6.
`COC1(c2ccccc2)CN(Cc2ccccc2)CCO1` (centres undefined) was tested, and the survivor count (dose: 400.0 mg/kg/injection, schedule: Q04DX003 (ip), vehicle: Klucel (hydroxypropylcellulose) (HPC)) was 5 of 6.
For `Cc1cccc(-c2nc3cc(Cl)ccc3c(=O)o2)c1`, the survivor count (dose: 200.0 mg/kg/injection, schedule: Q01DX009 (ip), vehicle: Klucel (hydroxypropylcellulose) (HPC)) was 5 of 6.
`CNc1n[n+](-c2ccccc2)no1` was tested, and the T/C (dose: 6.3 mg/kg/injection, schedule: Q01DX009 (ip), vehicle: saline) was 141 % of control, the T/C (dose: 12.5 mg/kg/injection, schedule: Q01DX009 (ip), vehicle: saline) was 119 [5 of 6 alive], 138 [5 of 6 alive], 147, 149, 171 % of control and the T/C (dose: 25.0 mg/kg/injection, schedule: Q01DX009 (ip), vehicle: saline) was 120 [5 of 6 alive], 135 [5 of 6 alive], 148, 189, 203 % of control. The T/C [3] was 101 and 112 % of control [5 of 6 alive], the survivor count [3] was 5 of 6 and 6 of 6 and the survivor count (dose: 50.0 mg/kg/injection, schedule: Q04DX003 (ip), vehicle: saline) was 4 of 6. The survivor count (dose: 100.0 mg/kg/injection, schedule: Q01DX009 (ip), vehicle: saline) was 0 of 6 and 5 of 6, the survivor count (dose: 100.0 mg/kg/injection, schedule: Q04DX003 (ip), vehicle: saline) was 3 of 6 and 4 of 6 and the survivor count [4] was 0 of 6. The survivor count [5] was 0 of 6, the survivor count (dose: 400.0 mg/kg/injection, schedule: Q01DX009 (ip), vehicle: saline) was 0 of 6 and the survivor count (dose: 400.0 mg/kg/injection, schedule: Q04DX003 (ip), vehicle: saline) was 1 of 6.
For `COC(=O)CCSC(c1ccccc1)(c1ccccc1)c1ccccc1`, the survivor count (dose: 175.0 mg/kg/injection, schedule: Q01DX009 (ip), vehicle: Klucel (hydroxypropylcellulose) (HPC)) was 6 of 6 and the survivor count (dose: 350.0 mg/kg/injection, schedule: Q01DX009 (ip), vehicle: Klucel (hydroxypropylcellulose) (HPC)) was 6 of 6.
In the case of `CC(=O)Nc1cc2c(cc1Br)-c1ccc(F)cc1C2`, the survivor count [2] is reported as 6 of 6, the survivor count [6] is reported as 6 of 6 and the survivor count [7] is reported as 5 of 6.
In the case of `Cc1cc(N(C)C)c2ccc3c(ccc4c(N(C)C)cc(C)nc43)c2n1`, the survivor count [8] is reported as 0 of 6.
In the case of `CC(C)COC(=O)C1(N)CCCC1`, the T/C [1] is reported as 125 % of control (2×).
`CCc1cc(CC)n2cnnc2n1` was tested, and the survivor count [4] was 0 of 6.
In the case of `CN(C)CCNC1=CC(=O)c2ccccc2C1=O`, the survivor count (dose: 200.0 mg/kg/injection, schedule: Q04DX003 (ip), vehicle: water) is reported as 3 of 6, the survivor count (dose: 300.0 mg/kg/injection, schedule: Q01DX009 (ip), vehicle: water) is reported as 1 of 6 and the survivor count (dose: 400.0 mg/kg/injection, schedule: Q01DX009 (ip), vehicle: water) is reported as 0 of 6.
For `CS(=O)CC(O)(c1ccc(F)cc1)C1CC1` (centres undefined), the survivor count [8] was 3 of 6.
For `COc1ccc2c(c1)CC1NCCc3cc4c(c-2c31)OCO4` (centres undefined), the survivor count [8] was 0 of 6.
`[N-]=[N+]=NC(=O)c1cccs1` was tested, and the survivor count (dose: 100.0 mg/kg/injection, schedule: Q01DX009 (ip), vehicle: saline + alcohol) was 3 of 6 and the survivor count (dose: 200.0 mg/kg/injection, schedule: Q01DX009 (ip), vehicle: saline + alcohol) was 0 of 6.
For `O=Cc1[nH]c(=O)[nH]c(=O)c1Br`, the T/C [2] was 133 % of control and the T/C [6] was 133 % of control.
`CCCCN(C(=O)C(F)(F)F)C(C)(C)C(SSSC(c1cccs1)C(C)(C)N(CCCC)C(=O)C(F)(F)F)c1cccs1` (centres undefined) was tested, and the T/C [6] was 127 % of control and the T/C [7] was 127 % of control.
In the case of `Nc1ncc(-c2ccc(CNc3ccc(C(=O)NC(CC(=O)O)CC(=O)O)cc3)cc2)c(N)n1`, the survivor count [6] is reported as 4 of 6 and the survivor count [5] is reported as 4 of 6.
